One experiment concerns the target SARS (UniProt P49591). Put plainly: dose-dependent thermal stabilisation call (2D-TPP, DLPTP, 10% FDR) (binary (1 = stabilised)); higher = stabilised by the compound. The note with it: system: HL-60 intact cells; concentration range 0.04-10 µM.
The target in a further experiment is T1, SARS2 (UniProt Q9NP81).
T1 sequence (whole entry): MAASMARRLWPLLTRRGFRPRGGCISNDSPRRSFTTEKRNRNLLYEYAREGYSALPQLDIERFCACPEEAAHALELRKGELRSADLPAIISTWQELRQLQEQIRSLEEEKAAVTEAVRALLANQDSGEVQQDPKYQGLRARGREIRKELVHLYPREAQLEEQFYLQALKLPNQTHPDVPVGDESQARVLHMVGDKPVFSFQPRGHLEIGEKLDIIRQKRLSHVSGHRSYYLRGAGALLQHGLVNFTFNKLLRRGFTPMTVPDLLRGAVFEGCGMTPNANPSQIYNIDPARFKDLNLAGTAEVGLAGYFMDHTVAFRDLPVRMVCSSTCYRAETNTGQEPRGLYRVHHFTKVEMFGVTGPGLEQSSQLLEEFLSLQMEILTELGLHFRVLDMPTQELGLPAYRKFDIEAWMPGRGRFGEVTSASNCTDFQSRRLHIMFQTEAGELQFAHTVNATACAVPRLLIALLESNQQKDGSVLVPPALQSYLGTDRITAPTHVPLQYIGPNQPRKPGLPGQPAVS
The description is as above. The note with it: system: HL-60 intact cells; concentration range 0.04-10 µM.

Sequences of proteins named here, by UniProt entry; tags and fusion partners are left off. A change or cut given only in a name is not applied to a line headed by its entry.
UniProt P49591: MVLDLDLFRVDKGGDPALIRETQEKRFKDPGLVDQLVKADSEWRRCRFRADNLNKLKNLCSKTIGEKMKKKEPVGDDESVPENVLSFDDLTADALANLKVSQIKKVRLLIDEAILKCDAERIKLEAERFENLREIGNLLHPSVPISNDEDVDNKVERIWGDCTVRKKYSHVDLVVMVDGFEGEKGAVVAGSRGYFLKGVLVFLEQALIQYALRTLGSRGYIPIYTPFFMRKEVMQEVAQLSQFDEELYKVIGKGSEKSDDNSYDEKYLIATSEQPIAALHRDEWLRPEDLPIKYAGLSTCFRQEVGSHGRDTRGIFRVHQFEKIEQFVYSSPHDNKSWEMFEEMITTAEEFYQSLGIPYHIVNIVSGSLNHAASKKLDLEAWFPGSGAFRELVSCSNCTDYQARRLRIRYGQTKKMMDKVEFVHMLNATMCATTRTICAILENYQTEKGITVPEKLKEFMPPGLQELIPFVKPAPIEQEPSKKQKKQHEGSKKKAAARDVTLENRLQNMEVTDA

The other results are listed elsewhere or left out.

As to `COc1ccc(Cn2ccc3ccc(C(=O)NO)cc32)cc1`, the “dose-dependent thermal stabilisation call” value with SARS and with SARS2 was inactive: 0 each time.

The values are drawn from the supplement of paper PMC7666118.
